PubChem BioAssay AID1508597 | Cure First – 2020

Aim: 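Knock-downs altering ovarian cancer cell survival with or without PARP inhibitor rucaparib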 (primary screen)
Cell system: human ovarian carcinoma lines grown from tumours: OCI-P5x (papillary serous) and OCI-C5x (clear cell)
Reagent: siRNA pool against human genes, 1.25 pmol siRNA per well
Time to read-out: 72 h or 96 h, depending on the cell culture
Conditions: rucaparib 20 µM (about IC30) or vehicle, present until read-out
Detection: 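Luminescent ATP-based viability assay read 72 or 96 h after transfection, depending on culture, given as normalised percent viability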
Scale: viability, normalised: higher = more viable cells remaining
Active means: 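a well counts as a hit if its normalised viability is under 80 percent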
Calls: active = viability under 80%; inactive = viability 80% or more
In all, the deposit lists about 2,100 reagents; this is a random part of them. 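Calls flag viability under 80% in either arm, not effects specific to rucaparib; the reference for percent is not stated.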 A number with no mark means an inactive call. The record does not give: the 100% reference.

For DIDO1, rucaparib or vehicle Rucaparib, cell line OCI-C5x (clear cell), technical replicate 1, the values are viability, normalised (%) = 32.3 (active).
With DIDO1, rucaparib or vehicle Rucaparib, cell line OCI-C5x (clear cell), technical replicate 2 the deposit lists viability, normalised (%) = 31.9 (active).
DIDO1, rucaparib or vehicle Rucaparib, cell line OCI-C5x (clear cell), technical replicate 3 showed viability, normalised (%) = 29.7 (active).
DIDO1, rucaparib or vehicle Rucaparib, cell line OCI-P5x (serous), technical replicate 1 gave viability, normalised (%) = 57.8 (active).
With DIDO1, rucaparib or vehicle Rucaparib, cell line OCI-P5x (serous), technical replicate 2, the values are viability, normalised (%) = 55.5 (active).
For DIDO1, rucaparib or vehicle Rucaparib, cell line OCI-P5x (serous), technical replicate 3 the deposit lists viability, normalised (%) = 56.9 (active).
DIDO1, rucaparib or vehicle Vehicle, cell line OCI-C5x (clear cell), technical replicate 1 gave viability, normalised (%) = 39.8 (active).
DIDO1, rucaparib or vehicle Vehicle, cell line OCI-C5x (clear cell), technical replicate 2 scored viability, normalised (%) = 30.6 (active).
DIDO1, rucaparib or vehicle Vehicle, cell line OCI-C5x (clear cell), technical replicate 3 showed viability, normalised (%) = 36.3 (active).
For DIDO1, rucaparib or vehicle Vehicle, cell line OCI-P5x (serous), technical replicate 1, the entry reads viability, normalised (%) = 49.1 (active).
With DIDO1, rucaparib or vehicle Vehicle, cell line OCI-P5x (serous), technical replicate 2, the values are viability, normalised (%) = 53.9 (active).
With DIDO1, rucaparib or vehicle Vehicle, cell line OCI-P5x (serous), technical replicate 3 the deposit lists viability, normalised (%) = 56.7 (active).
